For one molecule, binding results are on record in US20240279325A1.

Amino acid sequences for entries named in this document (tags omitted). Residues count along the entry.
UniProt P05231, residues 30-212: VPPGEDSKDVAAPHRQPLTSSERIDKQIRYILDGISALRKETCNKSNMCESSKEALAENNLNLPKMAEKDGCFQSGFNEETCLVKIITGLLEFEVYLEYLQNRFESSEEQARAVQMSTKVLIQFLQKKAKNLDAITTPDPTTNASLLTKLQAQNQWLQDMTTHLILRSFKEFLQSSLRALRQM

No constants are given. Whether binding was seen depends on the method and setting. Some entries that bind do so weakly or less than the wild type.

This assay addresses IL-6 (UniProt P05231). Description: phage ELISA, biotin-labeled IL-6 on StreptaWell plate, […] CaCl2 or 1 mM EDTA.

B1: 6KC4-1 #85 (Fab, V domains shown)
VH: EVQLVESGGGLVQPGGSLRLSCAASGFTFSSYEMNWVRQAPGKGLEWVSYISSSGSTIYYADSVKGRFTISRDNAKNSLYLQMNSLRAEDTAVYYCARDAPYYYDSSGYTDAFDIWGQGTMVTVSS
VL: EIVLTQSPATLSLSPGERATLSCRASQSVSSYLAWYQQKPGQAPRLLIFDASNRAAGIPARFSGSGSGTDFTLTISSLEPEDFAVYYCQQFDKWVTFGGGTTVEIR
With B1, the binding result is on record as “binds”.
